This note sets out measurements from PubChem BioAssay AID493014 (National Center for Advancing Translational Sciences (NCATS), 2011).

The nature of the experiment: qHTS Assay to Find Inhibitors of Chronic Active B-Cell Receptor Signaling. Particulars: ABC-DLBCL IkBa-CBG/CBR reporter, luminescence ratio (green luciferase fused to IkBa over red control in TMD8 lymphoma cells), 4 h. The procedure, abridged: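 Compounds up to 46 uM were incubated four hours with TMD8 cells whose green CBG68 luciferase is fused to IkappaBalpha; red CBR luminescence normalised the signal, and concentration-effect curves were fitted to fusion, red and ratio data.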
(In qHTS, concentration-response curves come from the screen itself.)

The mark [1] stands for this setting: measured here: CBR red luminescence, cell number.
The mark [2] stands for this setting: measured here: IkBa-CBG green luminescence.

Each structure is given as a SMILES string. The list shows a part of the results. Shown are side measurements of this screen, not its main read-out; they come without a call. Most of these compounds were active or inconclusive in the main read-out, so they are no random draw. The note in brackets gives the kind of curve behind each potency; many fits are weak.

Regarding `Cc1cc(C)nc(Sc2nc(C)nc3c2oc2ccccc23)n1`, the AC50 (in general, the midpoint of the concentration-response curve, whichever way the signal moves) under setting [1] was 35.5 µM [falling, single point].

With `Cc1cccc(OCC(=O)Nc2ccc(C(=O)O)cc2NC(=O)COc2cccc(C)c2)c1`, the AC50 under setting [1] was 8.91 µM [falling, partial curve, poor fit].

As for `Nc1ccc2oc(-c3cccc4ccccc34)nc2c1`, the AC50 under setting [1] was 15.8 µM [falling, single point].

Take `Cc1ccc(NC(=O)Cn2cc(C(=O)C3CC3)c3ccccc32)c(C)c1`: the AC50 under setting [1] is 6.31 µM [rising, single point].

`COc1ccc(C2CC(c3cccs3)=NN2C(=O)CN2CCCCC2)cc1` (stereo not drawn): the AC50 under setting [1] was 20 µM [rising, partial curve, poor fit].

Turning to `CC(C)(C)NC(=O)Cn1c(SCC(=O)Nc2nccs2)nc2ccccc21`, under setting [1], the AC50 was 1.84 µM [falling, partial curve, poor fit].

For `Cc1ccc(C(=O)NC(=S)NNC(=O)CC#N)cc1`, under setting [1], the AC50 is 14.1 µM [rising, single point].

For the molecule `CCOC(=O)Nc1nnc(CCc2ccccc2)s1`, the half-maximal activity concentration (AC50) under setting [1] is 8.91 µM [rising, partial curve].

With `c1ccc(SCCN2CCc3ccccc3C2)cc1`, the AC50 under setting [1] was 13 µM [rising, partial curve, poor fit].

As for `O=C(Nc1ccccc1O)c1cc(S(=O)(=O)N2CCOCC2)c(Cl)cc1Cl`, the AC50 under setting [1] is 17.8 µM [falling, single point].

In the case of `COc1ccc(NC(=O)c2cc3c(COC(C)=O)cnc(C)c3oc2=Nc2cccc(C(=O)O)c2)c(OC)c1`, the AC50 under setting [1] was 17.8 µM [rising, single point].

In the case of `Clc1ccc(NCc2ccsc2)cc1`, the AC50 under setting [1] was 11.2 µM [rising, partial curve, poor fit].

For the molecule `O=C(/C=C/c1ccccc1)c1c[nH]c2ccccc12`, the AC50 under setting [1] is 10 µM [falling, partial curve, poor fit].

As to `Cc1csc(Nc2ccc(Cl)cc2)[n+]1-c1ccc(Cl)cc1`, under setting [1], the AC50 was 7.08 µM [rising, partial curve].

On to `O=C(Nc1cccc(F)c1)N(Cc1ccc(Cl)cc1)CC(O)C(F)(F)F` (stereo not drawn), for which the AC50 under setting [1] is 29.1 µM [falling, single point] and the AC50 under setting [2] is 32.6 µM [rising, partial curve, poor fit].

Consider `COc1ccc(-c2csc(Cc3nc(O)cs3)n2)cc1`, for which, under setting [1], the AC50 was 11.2 µM [rising, single point].

For the molecule `O=C(/C=C/c1ccc(F)cc1)Nc1nc2ccccc2[nH]1`, the concentration at half-maximal activity (AC50) is 2.59 µM [falling, full curve] under setting [1] and 23.1 µM [rising, partial curve, poor fit] under setting [2].

As for `CCCN(CC(=O)Nc1ccccc1OC)C(=O)c1cc(S(=O)(=O)NCc2ccccc2)ccc1C`, the AC50 under setting [1] is 1.58 µM [falling, partial curve, poor fit].

For `O=C(Nc1cccc2ccccc12)c1ccc([N+](=O)[O-])o1`, the AC50 under setting [1] is 11.2 µM [falling, partial curve, poor fit].

For `CCc1ccc(C(=O)CN2C(=O)C(C)N(c3ccc(C)cc3)C2=O)cc1` (stereo not drawn), under setting [1], the concentration at half-maximal activity (AC50) was 25.9 µM [rising, single point].

For the molecule `S=C(Nc1ccc(Cl)cc1)NC1CC2CCCC(C1)N2C1CC1` (stereo not drawn), under setting [1], the AC50 was 6.51 µM [rising, single point].

`COc1ccc(NC(=O)/C(C#N)=C\c2cc(OC)c(OCc3ccc(C(=O)O)cc3)cc2Br)cc1`: under setting [1], the AC50 was 0.794 µM [falling, full curve, poor fit].

`Cc1ccc(CNC(=O)C2CC(c3ccccc3F)=NO2)cc1` (stereo not drawn): under setting [1], the AC50 was 3.98 µM [rising, full curve, poor fit].

For the molecule `O=C(c1ccccc1)C(CCC(CN1CCOCC1)C(=O)c1ccccc1)CN1CCOCC1` (stereo not drawn), the AC50 under setting [1] was 3.98 µM [falling, full curve].

As to `CCOC(=O)c1c(C)[nH]c(C(=O)N/N=C/c2cccc(OC)c2)c1C`, under setting [1], the AC50 is 0.461 µM [falling, partial curve, poor fit].

Consider `COC(=O)c1c(-c2ccc(Br)cc2)noc1N`, for which the AC50 under setting [1] is 29.1 µM [falling, single point].

Regarding `O=c1[nH]c(SCc2ccccc2Cl)nc2[nH]ncc12`, the AC50 under setting [1] is 35.5 µM [falling, single point].

With `O=C(Nc1cccc(F)c1)Nc1ccc(Cl)cn1`, the AC50 under setting [1] is 1.41 µM [rising, partial curve].

In the case of `CNC(=S)NNc1nncc2ccccc12`, the AC50 is, setting by setting: under setting [1], 22.4 µM [falling, single point]; under setting [2], 22.4 µM [falling, single point].

Turning to `O=C(NNC(=S)NC1CCCCC1)c1ccccc1O`, the AC50 under setting [1] is 8.91 µM [falling, partial curve].

Consider `Cc1cccc(NC(=O)c2sc(Cl)nc2-c2ccccc2)c1`, for which the AC50 under setting [1] was 10.3 µM [falling, partial curve, poor fit].

With `CC(C)=NNC(=O)c1c(O)c2ccccc2[nH]c1=O`, the AC50 under setting [1] was 3.98 µM [falling, full curve, poor fit].

For the molecule `O=C(NCC1CCCO1)c1cc(-c2ccc(F)cc2)no1` (stereo not drawn), the AC50 under setting [1] was 6.31 µM [falling, partial curve].

As for `COC(=O)c1ccc(CSc2nc3cc(Cl)ccc3s2)o1`, under setting [1], the AC50 was 11.2 µM [rising, partial curve].

As for `Brc1ccc2[nH]c3c(NCc4ccccn4)ncnc3c2c1`, the AC50 under setting [1] was 17.8 µM [falling, partial curve, poor fit].

As to `CN(C)c1ccc(-c2nc3cc(N)ccc3o2)cc1`, under setting [1], the AC50 was 15.8 µM [falling, partial curve].

For the molecule `CCN(CC)C(=O)CSc1nc2ccccc2c(=O)n1OC(C)C`, under setting [1], the AC50 is 5.17 µM [rising, partial curve, poor fit].

Take `Cc1cc(S(=O)(=O)NC2CCCCC2)ccc1OCC(=O)NCc1cccnc1`: the AC50 under setting [1] is 0.146 µM [falling, full curve, poor fit].

As for `CC1CCN(C(=O)CSc2ccc(-c3ccc4c(c3)OCCO4)nn2)CC1`, the AC50 under setting [1] is 12.6 µM [falling, partial curve, poor fit].

In the case of `COc1ccc(NC(=O)Nc2cccc3c2O[C@H](CN(C)S(=O)(=O)c2cccs2)[C@@H](C)CN([C@H](C)CO)C3=O)cc1`, the AC50 under setting [1] was 0.058 µM [rising, full curve, poor fit].

Turning to `COc1cc(/C=N/NC(=O)c2cc(C)oc2C)ccc1O`, the AC50 under setting [1] is 14.1 µM [falling, partial curve, poor fit].

As for `CC(NC(=O)C12CC3CC(CC(C3)C1)C2)c1ccc2c(c1)OCCO2` (stereo not drawn), the AC50 under setting [1] was 29.1 µM [rising, single point].

For `COc1ccccc1NC(=O)c1cc2ccc3cccnc3c2[nH]1`, under setting [1], the AC50 was 11.2 µM [falling, partial curve].

Turning to `CC(=O)Oc1ccc(C(=O)Nc2nccs2)cc1`, the half-maximal activity concentration (AC50) under setting [1] was 2.31 µM [falling, full curve, poor fit].

For the molecule `CCOC(=O)c1ccc(NS(C)(=O)=O)cc1`, the AC50 under setting [1] was 6.51 µM [rising, partial curve, poor fit].

Turning to `Cc1ccc(S(=O)(=O)N2C(=O)c3cccc4cccc2c34)cc1`, under setting [1], the AC50 is 20 µM [rising, partial curve, poor fit].

On to `Cc1ccc(C(=O)NCCCC(=O)O)o1`, for which the half-maximal activity concentration (AC50) under setting [1] is 0.411 µM [rising, full curve, poor fit].

Regarding `O=C(c1ccco1)N(Cc1cccs1)C1CCS(=O)(=O)C1` (stereo not drawn), the AC50 under setting [1] is 3.66 µM [falling, partial curve, poor fit].

For `COc1ccc(C(=O)C(/C=N/O)=N/Nc2ccc(F)cc2)cc1`, under setting [1], the AC50 was 2 µM [rising, partial curve, poor fit].

Take `Cc1cc2oc(=O)cc(-c3ccccc3)c2c(C)c1-c1ccc(OC(F)(F)F)cc1`: the AC50 under setting [1] is 29.1 µM [rising, single point] and the AC50 under setting [2] is 18.4 µM [falling, partial curve, poor fit].

With `Cc1ccc(SCc2cc(=O)[nH]c(/N=C(\N)Nc3ccccc3Sc3ccccc3)n2)cc1`, under setting [1], the half-maximal activity concentration (AC50) was 6.51 µM [rising, partial curve, poor fit].

As for `COC(=O)CCC(=O)Nc1ccc(NC(=O)CCC(=O)OC)cc1`, the AC50 under setting [1] is 23.1 µM [falling, single point].

With `Cc1n[nH]c(=S)n1-c1ccc(Cl)cc1`, under setting [1], the AC50 is 6.31 µM [rising, single point].

On to `CC(=O)N(Cc1ccc(F)cc1)C1=C(NCCc2ccccc2)C(=O)c2ccccc2C1=O`, for which, under setting [1], the AC50 was 2.06 µM [falling, partial curve, poor fit].

For the molecule `COc1ccc(C)cc1NC(=O)CSc1nc(=O)n(Cc2ccncc2)c2c1CCC2`, the AC50 under setting [1] is 35.5 µM [falling, single point].

In the case of `C=Cc1ccc(CN2C(=O)N(c3ccc(CC)cc3)S(=O)(=O)c3ccccc32)cc1`, under setting [1], the AC50 is 4.47 µM [rising, single point].

Turning to `CCOC(=O)C1CCN(C(=O)CSc2ccc(Cl)cc2)CC1`, under setting [1], the half-maximal activity concentration (AC50) is 13 µM [falling, partial curve].

For the molecule `Cc1[nH]c(SCC(=O)c2c(N)n(C)c(=O)n(C)c2=O)nc1Cc1ccccc1`, under setting [1], the AC50 is 1.16 µM [rising, full curve, poor fit].

On to `Cc1ccccc1NC(=O)Nc1ccc(C(F)(F)F)cc1`, for which the AC50 under setting [1] is 8.91 µM [falling, partial curve].

As to `CCCCc1c(C(=O)O)cc(OC)cc1C(=O)O`, the AC50 under setting [1] was 2 µM [rising, partial curve].

Take `Cc1ccc(C(=O)N/C(=C/c2cccs2)C(=O)N2CCCCC2)cc1`: the AC50 under setting [1] was 22.4 µM [falling, single point].

With `CCOC(=O)c1nnn(-c2nonc2N)c1CN1CCc2ccccc2C1`, the AC50 under setting [1] was 18.4 µM [falling, single point].

With `Cc1nnc(NC(=O)Cc2ccc(OCc3c(C)noc3C)cc2)s1`, the AC50 under setting [1] was 17.8 µM [rising, single point].

With `O=c1c2ccccc2c(C=NCCCN2CCOCC2)c(O)n1Cc1ccc2c(c1)OCO2`, the AC50 under setting [1] is 15.8 µM [falling, single point].
